In the supplement of paper PMC3047530 one finds growth inhibition data, which are given here for 93 compounds.

± gives the standard deviation of the averaged measurements. This is one part of the list. Single values are uncertain, as repeats are few or missing.

The subject of the assay is Geomyces destructans. As to the kind of experiment: growth inhibition relative to DMSO control; higher = stronger growth inhibition. The settings on record: 10 µM; 15 °C; incubation time 10 days.
As for `NCCCS(=O)(=O)O`, the growth inhibition is -33.4%.

On to `O=C(/C=C/c1ccccc1)c1ccc(O)cc1`, for which the growth inhibition was 20.7%.

With `CC1=CC(=O)C2=C(C)CC[C@@H]3[C@H](OC(=O)[C@H]3C)[C@@H]12`, the growth inhibition is 4.96%.

In the case of `CN(C)CCOC(=O)C(c1ccccc1)C1(O)CCCC1` (stereo not drawn), the growth inhibition was -5.29%.

In the case of `Nc1ccc(/N=N/c2ccccc2)c(N)n1`, the growth inhibition was -12.5%.

Regarding `CCCCC(=O)N(Cc1ccc(-c2ccccc2-c2nnn[nH]2)cc1)[C@H](C(=O)O)C(C)C`, the growth inhibition came to 4.84%.

On to `C[C@H]1C(=O)CC[C@@H]2[C@]1(C)CC[C@H]1[C@@]2(C)CC[C@@]2(C)[C@@H]3CC(C)(C)CC[C@]3(C)CC[C@]12C`, for which the growth inhibition was -16.9%.

Regarding `OC(CCN1CCCCC1)(c1ccccc1)c1ccccc1`, the growth inhibition is -8.62%.

On to `CCN(CC)CCNC(=O)c1cc(Br)c(N)cc1OC`, for which the growth inhibition is -3.78%.

On to `O=c1c(O)cccc2c([C@H]3Oc4cc(O)cc(O)c4C[C@H]3O)cc(O)c(O)c12`, for which the growth inhibition is 82.5%.

For `CCOC(N)=O`, the growth inhibition was determined as 5.93%.

`COc1cc(C(=O)O)c(O)c2c1OCO2`: the growth inhibition is -3.8%.

Regarding `COc1ccc(-c2cc(=O)c3c(O)cc(O[C@H]4O[C@H](CO[C@@H]5O[C@@H](C)[C@H](O)[C@@H](O)[C@H]5O)[C@@H](O)[C@H](O)[C@H]4O)cc3o2)cc1`, the growth inhibition was -5.81%.

Take `O=C1c2cccc(O)c2C(=O)c2c(O)cccc21`: the growth inhibition is -21.6%.

Consider `CC(C)NNC(=O)c1ccncc1`, for which the growth inhibition was -35.5%.

As to `CCCCCCCCCCCC[C@@H](C(=O)O)[C@H](C)C(=O)O`, the growth inhibition is -7.2%.

As for `O=C(O)c1cc(=O)c2ccccc2[nH]1`, the growth inhibition is -29%.

For `CN(C)CCc1c[nH]c2ccc(CS(=O)(=O)N3CCCC3)cc12`, the growth inhibition is -25.8%.

In the case of `COc1cc(/C=C/CO)ccc1O`, the growth inhibition came to 10.5%.

On to `CN1CCN2c3ccccc3Cc3ccccc3C2C1` (stereo not drawn), for which the growth inhibition was -9.71%.

As to `N[C@@H](Cc1ccc(O)c(O)c1)C(=O)O`, the growth inhibition came to 1.93%.

For `CCC(C)C(NC)C(=O)O` (stereo not drawn), the growth inhibition was -8.63%.

As to `COc1ccc(-c2coc3cc(O)ccc3c2=O)c(OC)c1`, the growth inhibition is -12.8%.

Consider `O=C(O)CCC(=O)c1ccc(-c2ccccc2)cc1`, for which the growth inhibition was -4.08%.

For the compound `O=C1c2c(O)ccc(O)c2C(=O)c2c(NCCNCCO)ccc(NCCNCCO)c21`, the growth inhibition is -19%.

Turning to `C[C@@H]1O[C@@H](O[C@H]2[C@H](O[C@H]3CC[C@@]4(C)[C@@H](CC[C@]5(C)[C@@H]4CC=C4[C@@H]6CC(C)(C)CC[C@]6(C(=O)O)CC[C@]45C)[C@]3(C)CO)OC[C@H](O)[C@@H]2O)[C@H](O)[C@H](O)[C@H]1O`, the growth inhibition stood at 91.2%.

For the compound `C[C@H](CCC(=O)O)[C@H]1CC[C@H]2[C@@H]3C(=O)C[C@@H]4CC(=O)CC[C@]4(C)[C@H]3CC(=O)[C@]12C`, the growth inhibition is -6.55%.

`CO[C@H]1C[C@H](O[C@@H]2/C(C)=C/C[C@@H]3C[C@@H](C[C@]4(CC[C@H](C)[C@@H](C5CCCCC5)O4)O3)OC(=O)[C@@H]3C=C(C)/C(=N/O)[C@H]4OC/C(=C\C=C\[C@@H]2C)[C@]43O)O[C@@H](C)[C@@H]1O`: the growth inhibition was -6.06%.

On to `Cc1nc2sccn2c(=O)c1CCN1CCC(=C(c2ccc(F)cc2)c2ccc(F)cc2)CC1`, for which the growth inhibition was -19.2%.

`C[N+](C)(C)CCOC(N)=O`: the growth inhibition was -11.3%.

On to `COC(=O)C[C@H]1C2(C)CC34OC5(C)O[C@@]6([C@H](OC)C(OC(=O)C(C)C)[C@]7(C)C(/C(=C(/OC)C(C)C)C(=O)O[C@H]7c7ccoc7)[C@@]6(O5)[C@H](OC)[C@@]3(OC)C2OC(C)=O)[C@]14C` (stereo partly drawn), for which the growth inhibition is -9.33%.

As to `COC(=O)[C@H]1[C@H]2C[C@H]3c4[nH]c5cc(OC)ccc5c4CCN3C[C@H]2C[C@@H](OC(=O)c2cc(OC)c(OC)c(OC)c2)[C@@H]1OC`, the growth inhibition is -1.34%.

Turning to `COc1cc(O)cc(OC)c1OC`, the growth inhibition was -2.64%.

Turning to `COC(=O)CC1C2(C)CC34OC5(C)OC6(C7/C(=C(/O)C(C)C)C(=O)OC(c8ccoc8)C7(C)C(OC(=O)C(C)C)C(OC)C6(O5)C13C)C(OC)C4(OC)C2OC(C)=O` (stereo not drawn), the growth inhibition was -0.794%.

With `CC1(C)O[C@@H]2C[C@H]3[C@@H]4C[C@H](F)C5=CC(=O)CC[C@]5(C)[C@H]4[C@@H](O)C[C@]3(C)[C@]2(C(=O)CO)O1`, the growth inhibition was -8.7%.

For the compound `CC1=CCc2c(cc3oc(C)cc(=O)c3c2O)OC1`, the growth inhibition was -13.1%.

`CC1(C)CC2C1CCC1(C)OC1CCC2(C)O` (stereo not drawn): the growth inhibition was -20.7%.

Turning to `COc1ccc(/C=C/c2cc(O)cc(O[C@@H]3O[C@H](CO)[C@@H](O)[C@H](O)[C@H]3O)c2)cc1O`, the growth inhibition is -37.4%.

Regarding `NNC(=O)c1ccncc1`, the growth inhibition was 7.57%.

As for `O=C(O)c1cc2cc(F)ccc2[nH]1`, the growth inhibition was -3.12%.

`CCN1CCCC1CNC(=O)c1cc(S(N)(=O)=O)ccc1OC` (stereo not drawn): the growth inhibition was -10.2%.

Take `O=c1cccc2ccc(O)c(O)c2c1O`: the growth inhibition was -18%.

As to `Cc1cccc(N(C)C(=S)Oc2ccc3ccccc3c2)c1`, the growth inhibition is -24.2%.

With `O=C(O)c1cccnc1`, the growth inhibition was -1.55%.

Regarding `CCCCc1oc2ccccc2c1C(=O)c1cc(I)c(OCCN(CC)CC)c(I)c1`, the growth inhibition is 73.1%.

Regarding `O=C(Nc1ccc([N+](=O)[O-])cc1Cl)c1cc(Cl)ccc1O`, the growth inhibition is -6.7%.

For the compound `CCOc1ccc(Cc2nccc3cc(OCC)c(OCC)cc23)cc1OCC`, the growth inhibition is -8.37%.

With `C#C[C@]1(O)CC[C@H]2[C@@H]3CCC4=Cc5oncc5C[C@]4(C)[C@H]3CC[C@@]21C`, the growth inhibition is -15.7%.

As to `CC12CC3CC(C)(C1)CC(N)(C3)C2`, the growth inhibition was -38.8%.

As to `CC(C)=CCc1c(O)cc2oc(C)cc(=O)c2c1O`, the growth inhibition was -22.3%.

Take `CCC[C@@H]1C[C@@H](C(=O)N[C@@H]([C@H]2O[C@H](SC)[C@H](O)[C@@H](O)[C@H]2O)[C@@H](C)O)N(C)C1`: the growth inhibition is 1.77%.

For `C=C1C(N)CC2CC1C2(C)C` (stereo not drawn) [3-AMINO-beta-PINENE], the growth inhibition is 0.285%.

As for `CN1CCCN=C1/C=C/c1cccs1`, the growth inhibition was -14%.

In the case of `CC(C)(C)CC(C)(C)c1ccc(OCCOCC[N+](C)(C)Cc2ccccc2)cc1`, the growth inhibition came to 78.6%.

For `COc1ccc(CCC(=O)c2c(O)cc(O[C@@H]3O[C@H](CO)[C@@H](O)[C@H](O)[C@H]3O[C@@H]3O[C@@H](C)[C@H](O)[C@@H](O)[C@H]3O)cc2O)cc1O`, the growth inhibition was -1.93%.

For `CCCCOc1ccc(C(=O)CCN2CCCCC2)cc1`, the growth inhibition is -0.422%.

For `COc1cccc(O)c1O`, the growth inhibition is -9.39%.

Turning to `Nc1nc(N)c2nc(-c3ccccc3)c(N)nc2n1`, the growth inhibition is -21.4%.

In the case of `C=C1CC[C@H](O)C/C1=C/C=C1\CCC[C@]2(C)[C@@H]([C@H](C)/C=C/[C@H](C)C(C)C)CC[C@@H]12`, the growth inhibition came out at 6.96%.

On to `CC(C)=CCCC1(C)C=Cc2c(O)c3c(c(CC=C(C)C)c2O1)OC12C(=CCCC1C(C)(C)O[C@@]2(C/C=C(\C)C(=O)O)C(=O)O)C3=O` (stereo partly drawn), for which the growth inhibition was -13%.

With `C=CC1=C(C)/C(=C/c2[nH]c(Cc3[nH]c(/C=C4\NC(=O)C(C)=C4C=C)c(C)c3CCC(=O)O)c(CCC(=O)O)c2C)NC1=O`, the growth inhibition was -7.61%.

For `O=C(O)c1cc(O)ccc1O`, the growth inhibition was -7.25%.

For `C[C@H]1[C@H]2CC[C@H]3[C@@H]4CC=C5C[C@@H](N(C)C)CC[C@]5(C)[C@H]4CC[C@]23CN1C`, the growth inhibition is -16.6%.

`CC(CN(C)C)CN1c2ccccc2CCc2ccccc21` (stereo not drawn): the growth inhibition was -7.71%.

Take `COC(=O)[C@H]1[C@H]2C[C@H]3c4[nH]c5ccccc5c4CCN3C[C@H]2CC[C@@H]1O`: the growth inhibition was -15.4%.

`C[C@@H]([C@H]1OC(C)(C)[C@@H](O)[C@H]1O)[C@@H]1CC[C@]2(C)C3=CC[C@H]4C(C)(C)C(=O)CC[C@]4(C)[C@H]3CC[C@@]12C`: the growth inhibition was -10.6%.

Turning to `CC(C)=CCC[C@@H](C)[C@@H]1CC[C@]2(C)C3=C(CC[C@@]12C)[C@@]1(C)CC[C@H](O)C(C)(C)[C@@H]1CC3`, the growth inhibition came out at 1.81%.

With `CC(C)NCC(O)COc1cccc2[nH]ccc12` (stereo not drawn), the growth inhibition is -3.2%.

Consider `OC(CCN1CCCC1)(c1ccccc1)C1CCCCC1` (stereo not drawn), for which the growth inhibition was -9.96%.

Take `CN(Cc1cc(Br)cc(Br)c1N)C1CCCCC1`: the growth inhibition is -3.47%.

Consider `C[C@H](CS)C(=O)N1CCC[C@H]1C(=O)O`, for which the growth inhibition was found to be 8.75%.

As for `CC1(C)O[C@@H]2C[C@H]3[C@@H]4C[C@H](F)C5=CC(=O)C=C[C@]5(C)[C@H]4[C@@H](O)C[C@]3(C)[C@]2(C(=O)CO)O1`, the growth inhibition is -9.1%.

As to `COc1ccc2c(=O)cc(-c3ccccc3OC)oc2c1`, the growth inhibition was -6.57%.

For the compound `COC(=O)[C@@]1(C)CCC[C@]2(C)c3ccc(O)c(C(C)C)c3CCC12` (stereo partly drawn), the growth inhibition was -11.1%.

Regarding `COC(=O)/C(C)=C\CC12OC(C)(C)C3CC(C=C4C(=O)c5c(O)c6c(c(CCC(C)(C)Cl)c5OC431)OC1(C)CCC(=C(C)C)C6C1)C2=O` (stereo not drawn), the growth inhibition is -11.8%.

With `CC(C)c1c(O)ccc2c1CCC1[C@@](C)(C=O)CCC[C@]21C` (stereo partly drawn), the growth inhibition is -12.2%.

Take `COc1ccc(-c2cc(=O)c3c(OC)cc(OC)cc3o2)cc1`: the growth inhibition is -21.8%.

With `NCCc1ccc(O)c(O)c1`, the growth inhibition is 0.206%.

For the compound `CC[C@H](c1ccc(O)cc1)[C@@H](CC)c1ccc(O)cc1`, the growth inhibition is -30.1%.

Turning to `C[C@]12CCC(=O)C=C1CC[C@@H]1[C@@H]2[C@@H](O)C[C@@]2(C)[C@H]1CC[C@]2(O)C(=O)COP(=O)(O)O`, the growth inhibition is -4.65%.

In the case of `CC(=O)OCC(=O)[C@@]1(O)CC[C@H]2[C@@H]3CCC4=CC(=O)C=C[C@]4(C)[C@H]3[C@@H](O)C[C@@]21C`, the growth inhibition was -17.3%.

As to `C/C=C(\C)C(=O)O[C@@H]1c2c(ccc3ccc(=O)oc23)OC(C)(C)[C@@H]1OC(C)=O`, the growth inhibition is -8.69%.

Consider `CC(C)CCC[C@@H](C)[C@H]1CC[C@H]2[C@@H]3C[C@@H](O)[C@@]4(O)C[C@@H](O)CC[C@]4(C)[C@H]3CC[C@]12C` [CHOLESTAN-3beta,5alpha,6beta-TRIOL], for which the growth inhibition is -3.24 ± 7.5%.

Consider `C=C1CCC2C(CC2(C)C)C(=O)CCC1O` (stereo not drawn), for which the growth inhibition is -14.7%.

As for `NC(CO)C(=O)NNCc1ccc(O)c(O)c1O` (stereo not drawn), the growth inhibition was -28.6%.

Take `C[C@H]1COc2c(N3CCN(C)CC3)c(F)cc3c(=O)c(C(=O)O)cn1c23`: the growth inhibition was -24.2%.

On to `CN(C)CCCN1c2ccccc2CCc2ccccc21`, for which the growth inhibition is -0.678%.

For `Cc1cc(O)c2c(c1)C(=O)c1cc(O)cc(O)c1C2=O`, the growth inhibition amounted to 4.82%.

`CN1CCC(OC(c2ccccc2)c2ccccc2)CC1`: the growth inhibition was -3.88%.

Turning to `COc1cccc(-c2cc(=O)c3ccc(OC)cc3o2)c1`, the growth inhibition was -39.8%.

In the case of `C[N+](C)(C)CCO.[Cl-]`, the growth inhibition was -3.71%.

On to `CC(C)=CCOc1cc2oc(=O)ccc2cc1O`, for which the growth inhibition is -8.86%.

Regarding `CC(=O)O[C@@](C)(CCC=C(C)C)C1CC=C(C)CC1` (stereo partly drawn), the growth inhibition was -3.05%.
